Some of these results come from one statement about several compounds together.
Molecular target: hGPR38R (Homo sapiens, UniProt O43193)
Assay: GPR38 FLIPR functional agonist assay
Type: cell-based
Parameters: expressed in transfected cells
Details: HEK-293 cells stably expressing the GPR38 receptor; agonist response, Fluo-4 fluorescence
Procedure: The potencies and efficacies of the compounds of this invention for GPR^38 can be determined by FLIPR assay performed on the human cloned receptor as described herein. It has been found, using the FLIPR functional assay, that compounds of formula (I) appear to be partial or full agonists of the GPR38 receptor.
GPR38FLIPR Functional Agonist Assay Protocol
HEK-293 cells stably expressing the GPR38 receptor were seeded (10,000 cells/well) into poly-D-lysine coated 384-well black-wall, clear-bottom microtitre plates (Becton Dickinson) 24 h prior to assay. On day of assay, cells were washed (×2) with 80 ul of assay buffer (Hanks Balanced Salts Solution (HBSS), 10 mM HEPES, 200 μM Ca^2+, 2.5 mM probenecid) using the EMBLA cell washer. After the final wash, buffer was aspirated to leave a residual volume of 30 ul on the cells. Cells were loaded with 1 μM (final) Fluo-4-AM fluorescent indicator dye (TefLabs) in assay buffer, (20 ul loading solution added to each well using the Multidrop). Plates were incubated for 1 h at 37° C., before being washed (×3) with 80 ul assay buffer using the EMBLA cell washer; 30 ul residual being left after the final wash. Plates were then assayed on a Fluorometric Imaging Plate Reader (FLIPR, Molecular Devices). Test compounds were prepared in assay buffer without probenecid, but containing 0.03% CHAPS. In the FLIPR, 10 ul of test compound was added to the cells and changes in fluorescence measured over a 2 min timeframe. Maximum change in fluorescence over baseline was used to determine agonist response and concentration response curves were constructed, using a 4-parameter logistic equation.
The following alternative procedure may also be used:
HEK-293 cells stably expressing the GPR38 receptor were seeded (30,000 cells/100 ul growth media/well) into poly-D-lysine coated 96-well black-wall, clear-bottom microtitre plates (Corning) 24 hours prior to assay. On the day of assay the cells were loaded with 2 μM (final) Fluo-4-AM fluorescent indicator dye (Molecular Probes) and 1 mM (final) probenicid in assay buffer (145 mM sodium chloride, 2.5 mM potassium chloride, 10 mM Hepes, 10 mM glucose, 1.2 mM magnesium chloride, 1.5 mM calcium chloride and 0.1% BSA) (50 ul loading solution added to each well). Plates were incubated for 1 hour at 25° C., before being washed 4 times with 100 ul assay buffer using the EMBLA cell washer; 150 ul residual being left after the final wash. The cells were then incubated at 25° C. for 20 minutes and the plates were then assayed on a Fluorometric Imaging Plate Reader (FLIPR, Molecular Devices). Test compounds were prepared in assay buffer without probenecid. In the FLIPR, 50 ul of test compound was added to the cells and changes in fluorescence measured over a 2 minute timeframe. Maximum change in fluorescence over baseline was used to determine agonist response and concentration response curves were constructed, using a 4-parameter logistic equation.

By UniProt entry, the sequences of proteins in these tests, tags left out. Where a name states a change or a piece, a line headed by the entry shows the natural chain unless it says otherwise.
UniProt O43193: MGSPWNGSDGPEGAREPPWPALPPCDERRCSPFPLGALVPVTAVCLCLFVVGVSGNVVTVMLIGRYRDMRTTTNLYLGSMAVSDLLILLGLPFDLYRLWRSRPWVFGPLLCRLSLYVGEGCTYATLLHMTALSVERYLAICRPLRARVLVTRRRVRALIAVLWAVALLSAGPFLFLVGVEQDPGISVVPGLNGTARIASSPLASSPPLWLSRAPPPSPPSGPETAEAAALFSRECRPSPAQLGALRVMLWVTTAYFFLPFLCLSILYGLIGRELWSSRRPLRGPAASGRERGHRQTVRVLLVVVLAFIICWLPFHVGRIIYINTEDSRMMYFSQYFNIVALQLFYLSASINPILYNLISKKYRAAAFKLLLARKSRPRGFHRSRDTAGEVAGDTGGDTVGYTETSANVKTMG

Row | Compound | pEC50 in the FLIPR assay
1 | C[C@@H]1CN(Cc2ccc(-c3cccnc3C(=O)N3CCC(Nc4ccc(F)cc4)CC3)cc2)C[C@H](C)N1 [Example 2, (3R,5S)-3,5-Dimethyl-1-({4-[2-({4-[(4-fluorophenyl)amino]piperidin-1-yl}carbonyl)pyridin-3-yl]phenyl}methyl)piperazine] | > 6.0
2 | C[C@H]1CN(Cc2ccc(-c3cccnc3C(=O)N3CCC(Nc4ccc(F)cc4)CC3)cc2)CCN1 [Example 8, N-(4-Fluorophenyl)-1-{[3-(4-{[(3S)-3-methyl-1-piperazinyl]methyl}phenyl)-2-pyridinyl]carbonyl}-4-piperidinamine] | > 6.0
3 | C[C@@H]1CN(Cc2ccc(-c3cccnc3C(=O)N3CCC(Nc4ccc(F)cc4)CC3)cc2F)C[C@H](C)N1 [Example 9, 1-{[3-(4-{[(3R,5S)-3,5-dimethyl-1-piperazinyl]methyl}-3-fluorophenyl)-2-pyridinyl]carbonyl}-N-(4-fluorophenyl)-4-piperidinamine] | > 6.0
4 | C[C@@H]1CN(Cc2ccc(-c3cccnc3C(=O)N3CCC(Nc4cccc(F)c4)CC3)cc2)C[C@H](C)N1 [Example 10, 1-{[3-(4-{[(3R,5S)-3,5-dimethyl-1-piperazinyl]methyl}phenyl)-2-pyridinyl]carbonyl}-N-(3-fluorophenyl)-4-piperidinamine] | > 6.0
5 | C[C@@H]1CN(Cc2ccc(-c3cccnc3C(=O)N3CCC(Nc4cccc(F)c4)CC3)cc2F)C[C@H](C)N1 [Example 11, 1-{[3-(4-{[(3R,5S)-3,5-dimethyl-1-piperazinyl]methyl}-3-fluorophenyl)-2-pyridinyl]carbonyl}-N-(3-fluorophenyl)-4-piperidinamine] | > 6.0
6 | C[C@@H]1CN(Cc2ccc(-c3cccnc3C(=O)N3CCC(Nc4ccc(F)c(F)c4)CC3)cc2F)C[C@H](C)N1 [Example 12, N-(3,4-difluorophenyl)-1-{[3-(4-{[(3R,5S)-3,5-dimethyl-1-piperazinyl]methyl}-3-fluorophenyl)-2-pyridinyl]carbonyl}-4-piperidinamine] | > 6.0
7 | C[C@H]1CN(Cc2ccc(-c3cccnc3C(=O)N3CCC(Nc4cccc(F)c4)CC3)cc2)CCN1 [Example 14, N-(3-fluorophenyl)-1-{[3-(4-{[(3S)-3-methyl-1-piperazinyl]methyl}phenyl)-2-pyridinyl]carbonyl}-4-piperidinamine] | > 6.0
8 | C[C@@H]1CN(Cc2ccc(-c3cccnc3C(=O)N3CCC(Nc4ccc(F)c(F)c4)CC3)cc2)C[C@H](C)N1 [Example 15, N-(3,4-difluorophenyl)-1-{[3-(4-{[(3R,5S)-3,5-dimethyl-1-piperazinyl]methyl}phenyl)-2-pyridinyl]carbonyl}-4-piperidinamine] | > 6.0
9 | COc1cc(-c2cccnc2C(=O)N2CCC(Nc3ccc(F)cc3)CC2)ccc1CN1C[C@@H](C)N[C@@H](C)C1 [Example 17] | > 6.0
